Test [1] addresses MILI (mouse (endogenous in testis)) (UniProt Q8CDG1). The test is described as follows: co-IP; postnatal day 20 testicular extracts (Mov10l1 fl/- Neurog3-Cre) immunoprecipitated with anti-MILI and anti-MOV10L1 antibodies, Western blot; input 1/50 of the extract used for IP. In general terms: A western blot detects proteins with antibodies after separation by electrophoresis.
Test [2] deals with T1, MOV10L1 (mouse (endogenous in testis)) (UniProt Q99MV5).
T1 sequence: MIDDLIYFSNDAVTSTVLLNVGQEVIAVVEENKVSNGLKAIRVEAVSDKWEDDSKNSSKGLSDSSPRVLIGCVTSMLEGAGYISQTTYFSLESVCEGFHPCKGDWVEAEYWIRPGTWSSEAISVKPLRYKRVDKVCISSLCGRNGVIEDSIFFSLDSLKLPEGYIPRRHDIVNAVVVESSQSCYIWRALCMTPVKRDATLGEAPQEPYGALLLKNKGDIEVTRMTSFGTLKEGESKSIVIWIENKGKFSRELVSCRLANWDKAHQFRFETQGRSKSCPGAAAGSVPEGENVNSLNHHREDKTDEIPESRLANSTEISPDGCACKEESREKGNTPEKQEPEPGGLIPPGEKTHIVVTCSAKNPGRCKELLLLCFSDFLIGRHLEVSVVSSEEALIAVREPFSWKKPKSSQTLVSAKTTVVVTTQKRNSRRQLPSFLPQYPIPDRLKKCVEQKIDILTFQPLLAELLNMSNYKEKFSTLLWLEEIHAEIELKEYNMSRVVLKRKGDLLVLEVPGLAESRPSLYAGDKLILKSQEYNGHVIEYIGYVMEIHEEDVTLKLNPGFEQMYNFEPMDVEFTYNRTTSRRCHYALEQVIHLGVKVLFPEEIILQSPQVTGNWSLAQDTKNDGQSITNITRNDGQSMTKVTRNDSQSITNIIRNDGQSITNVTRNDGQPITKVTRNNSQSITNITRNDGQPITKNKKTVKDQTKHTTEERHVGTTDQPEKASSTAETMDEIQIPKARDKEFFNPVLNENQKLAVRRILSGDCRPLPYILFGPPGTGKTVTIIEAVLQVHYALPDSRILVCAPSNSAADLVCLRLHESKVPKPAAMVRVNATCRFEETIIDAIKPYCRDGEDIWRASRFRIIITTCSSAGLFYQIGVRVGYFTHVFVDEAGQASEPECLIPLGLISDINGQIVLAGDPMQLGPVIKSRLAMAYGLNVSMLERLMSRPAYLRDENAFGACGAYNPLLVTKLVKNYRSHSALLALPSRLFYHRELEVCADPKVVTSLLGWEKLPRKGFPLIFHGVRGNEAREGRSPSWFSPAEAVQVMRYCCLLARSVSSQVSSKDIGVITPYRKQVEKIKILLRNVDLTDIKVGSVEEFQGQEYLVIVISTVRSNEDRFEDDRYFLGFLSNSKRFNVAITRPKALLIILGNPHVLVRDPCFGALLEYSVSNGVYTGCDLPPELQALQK
The description is as above.

Amino acid sequences for entries named in this document (tags omitted).
UniProt Q8CDG1: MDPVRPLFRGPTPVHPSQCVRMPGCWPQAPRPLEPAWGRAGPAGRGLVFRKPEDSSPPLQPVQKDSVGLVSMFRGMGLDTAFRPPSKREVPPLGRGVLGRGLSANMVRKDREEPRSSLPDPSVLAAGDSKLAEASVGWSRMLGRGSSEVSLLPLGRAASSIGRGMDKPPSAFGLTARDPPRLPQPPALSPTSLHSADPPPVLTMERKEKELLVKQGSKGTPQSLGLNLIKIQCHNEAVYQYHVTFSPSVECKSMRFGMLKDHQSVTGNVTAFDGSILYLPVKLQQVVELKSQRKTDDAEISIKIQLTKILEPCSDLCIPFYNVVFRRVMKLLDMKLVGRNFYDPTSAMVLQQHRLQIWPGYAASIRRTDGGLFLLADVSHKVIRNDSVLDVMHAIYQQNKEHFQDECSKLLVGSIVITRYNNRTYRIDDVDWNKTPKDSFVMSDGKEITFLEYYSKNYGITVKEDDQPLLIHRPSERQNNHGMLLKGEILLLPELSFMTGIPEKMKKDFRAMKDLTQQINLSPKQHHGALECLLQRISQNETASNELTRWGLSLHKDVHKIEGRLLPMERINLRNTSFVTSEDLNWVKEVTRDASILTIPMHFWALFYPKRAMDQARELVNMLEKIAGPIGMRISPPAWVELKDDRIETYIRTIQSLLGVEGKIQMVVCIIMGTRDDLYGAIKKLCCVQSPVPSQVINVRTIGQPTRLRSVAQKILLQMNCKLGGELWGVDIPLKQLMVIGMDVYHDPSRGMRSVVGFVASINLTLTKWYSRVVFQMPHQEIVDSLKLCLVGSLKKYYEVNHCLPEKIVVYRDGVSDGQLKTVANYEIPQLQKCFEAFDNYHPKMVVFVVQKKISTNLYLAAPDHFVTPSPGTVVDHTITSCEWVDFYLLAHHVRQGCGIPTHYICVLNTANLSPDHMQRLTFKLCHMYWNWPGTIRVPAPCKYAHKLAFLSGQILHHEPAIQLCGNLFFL

These are yes or no findings as the source states them, for the method shown. In cells and extracts the contact can be indirect. Some entries that bind do so weakly or less than the wild type.

B1: TDRD1 (protein, UniProt Q99MV1 1-1172)
chain: MMPRNNLEASTCKMAEPFNFEKKESKPPPQDPLRSPVAQHNHPTFRLKSPENGNTKNNFLLCEQNKQYLASQEDSSVVSSNPAVVNGEVGGSKGDRKPPPTGNPVSPLSLGNSSPPNQVKTKPSSNVTPEKSKKSHKLFENALSVNNPALFNSLGPPLRSTTCHRCGLFGSLRCSQCKQTYYCSTACQRRDWSSHSTICRPVQQSLNKLEDNKSPFETKAIEVKSEVDCPPGVTKEITAGAERVMFSDLRSLQLKKTMEIKGTVTEFKHPSNFYIQLYSSEVLENMNQLSTSLKETYANVVPEDGYLPVKGEVCVAKYTVDQTWNRAIVQAVDVLQRKAHVLYIDYGNEEMIPIDSVHPLSRGLDLFPPSAIKCCVSGVIPTAGEWSEGCVAAVKALLFEQFCSVKVMDILEEEVLTCAVDLVLQSSGKQLDHVLVEMGYGVKPGEQSSTEQSVDHSALEDVGRVTVESKIVTDRNALIPKVLTLNVGDEFCGVVAHIQTPEDFFCQQLQSGHKLAELQESLSEYCGHVIPRSDFYPTIGDVCCAQFSEDDQWYRASVLAYASEESVLVGYVDYGNFEILSLKRLCPIIPKLLDLPMQALNCVLAGVKPSLGIWTPEAVCVMKEMVQNRMVTVRVVGMLGTRALVELIDKSVAPHVSASKALIDSGFAIKEKDVADKGSSMHTASVPLAIEGPAEALEWTWVEFTVDETVDVVVCMMYSPGEFYCHFLKDDALEKLDDLNQSLADYCAQKPPNGFKAEIGRPCCAFFSGDGNWYRALVKEILPSGNVKVHFVDYGNVEEVTTDQLQAILPQFLLLPFQGMQCWLVDIQPPNKHWTKEATARFQACVVGLKLQARVVEITANGVGVELTDLSTPYPKIISDVLIREQLVLRCGSPQDSLMSRPANQHKQIDSHRVQASPSAEQWKTMELPVNKTIAANVLEIISPALFYAIPSEMSENQEKLCVLAAELLEHCNAQKGQPAYRPRTGDACCAKYTNDDFWYRAIVLETSESDVKVLYADYGNIETLPLSRVQPIPASHLELPFQIIRCSLEGPMELNGSCSQLVMELLRNAMLNQSVVLSVKAISKNVHAVSVEKCSENGMINIAENLVMCGLAENLTSKRKSASTKEIPHSRDCCCTELQKQIEKHEQILLFLLNNPTNQSKFTEMKKLLRS
With B1, the binding entry in test [1] and in test [2] was “binds” in each case.

B2: MOV10L1 (protein, UniProt Q99MV5 1-1187)
chain: T1 sequence
Consider B2, for which, in test [1], the binding entry is given as “binds”.

(Values after paper PMC3499362.)
